Measured values as given in PubChem BioAssay AID1347423 (Functional Genomics Laboratory (NCATS/FGL), 2020).
About 210 (0.4%) of roughly 52,000 sequences were called active.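 The calls were made as follows: active = gene whose silencing raises cell survival under the drug, median off-target-corrected z-score across its silencing RNAs 2 or more; inactive = the rest.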 This is one part of the list.

Assay: Resistance to Poly (ADP-Ribose) Polymerase inhibitor: Gene Identification via Genome-wide siRNA Screen
Conditions: mouse BRCA2 R2336H ES cells, olaparib, CellTiter-Glo viability; stronger effect = higher value
Summary of the method: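 Mouse BRCA2 R2336H ES cells were reverse-transfected with siRNA (20 nM final), treated at 48 h with 500 nM olaparib, and read by CellTiter-Glo after 72 h. Scores: MAD-based z per siRNA, median per gene, seed off-target correction.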

**Q.** For “GGAGUCAAAUGAUUAUGUCTT against E430019B13Rik”, which z-score is on record?
**A.** inactive: 2.22

**Q.** With GGUUUUGGAAAAUUUGCUATT against Hal as the sequence, how does the z-score read?
**A.** inactive: 0.733

**Q.** Which z-score does the source give for GGUAGAAAAUUGUCUUUUCTT against Zcchc7 here?
**A.** inactive: 0.601

**Q.** For CGGGACUUUAGAUUAUGAATT against Pcdha11, which z-score is on record?
**A.** inactive: -0.36

**Q.** For “GCUCUGCUGUGUUAUAUGGTT against C330011M18Rik”, which z-score is on record?
**A.** inactive: -0.729

**Q.** With GCAGUUACAAGACUCCUUGTT against Catna3 as the sequence, how does the z-score read?
**A.** inactive: 0.0922

**Q.** For CGUGGUGCAGAAUUUUUAUTT against Cldn14, which z-score is on record?
**A.** inactive: 0.758

**Q.** With GGAAAAGGAGGAGGAAGGCTT against Lpin1 as the sequence, how does the z-score read?
**A.** inactive: -0.309

**Q.** With GGAGCAUGAGGACAUCAGATT against Tnp1 as the sequence, how does the z-score read?
**A.** inactive: -2.53

**Q.** For CGGGAAUCUAAAUAUGGUGTT against Oat, which z-score is on record?
**A.** inactive: 1.35

**Q.** Which z-score does the source give for GCCGAGUUGAAGUGAAGAATT against Pold2 here?
**A.** inactive: -2.03

**Q.** Which z-score does the source give for GGUGGAGCUCAGUAUUCUGTT against Vmp here?
**A.** inactive: 0.138

**Q.** Which z-score does the source give for GCACUAUAAUUCUCAUUACTT against Omd here?
**A.** inactive: 0.805

**Q.** For GGAUAUUUACCAUCAGUGATT against Prlpe, which z-score is on record?
**A.** inactive: -0.679

**Q.** With “GCACAUUUAUCCCGGUGUATT against 0610039C21Rik” as the sequence, how does the z-score read?
**A.** inactive: -0.0939

**Q.** With CGAUGACUGUAAAAAGUCUTT against Plcb1 as the sequence, how does the z-score read?
**A.** inactive: 0.464

**Q.** Which z-score does the source give for GGCAGAAUGUUGUAAAUGATT against Man2b1 here?
**A.** inactive: -1.45

**Q.** For CCAUCUGAGAACAUCAUUGTT against Hr6bn, which z-score is on record?
**A.** inactive: 1.42

**Q.** Which z-score does the source give for “GGUUUGACAAGUUCUUUUGTT against B930041G04” here?
**A.** inactive: -0.11

**Q.** For GCCUCCUAGUAUUUACAUGTT against Ube2j2, which z-score is on record?
**A.** inactive: 0.512

**Q.** For GGCUUCCUGUUUGUUUGGATT against BC021614, which z-score is on record?
**A.** inactive: -0.33

**Q.** With “GGGUAAUACUCCUAAGAAATT against A630050E13Rik” as the sequence, how does the z-score read?
**A.** inactive: 1.1

**Q.** For CCCUUAAUAAAGAAGGGACTT against AU019532, which z-score is on record?
**A.** inactive: -0.754

**Q.** Which z-score does the source give for CCUCAAGGAACUGAAUGCCTT against Olfr1320 here?
**A.** inactive: 1.41

**Q.** Which z-score does the source give for CGAUGACCUUGAAUAAAAATT against Vim here?
**A.** inactive: 0.012

**Q.** With “GGACUUUGUCACCAUGACGTT against 2600002E23Rik” as the sequence, how does the z-score read?
**A.** inactive: 0.643

**Q.** For GCUCCUAAUCUAGGAUCUGTT against Prss22, which z-score is on record?
**A.** inactive: 2.35

**Q.** Which z-score does the source give for GGAGUACUGGGCAUAUAAATT against Slc29a3 here?
**A.** inactive: 0.29

**Q.** With “GCUUAUGAGAUGAGUGAAUTT against D11Ertd707e” as the sequence, how does the z-score read?
**A.** inactive: -0.671

**Q.** With CCAUUGAAUCAGUUGAAGUTT against Slc5a7 as the sequence, how does the z-score read?
**A.** inactive: 0.312

**Q.** With GGGUCACAGAGGUUACCCATT against Col2a1 as the sequence, how does the z-score read?
**A.** inactive: 0.0649

**Q.** Which z-score does the source give for “GGCCUUUAGUGCCAUUGUUTT against 5930416I19Rik” here?
**A.** inactive: -2.98

**Q.** For GGGUGAAGAUUCUCUACAATT against Dctn3, which z-score is on record?
**A.** inactive: -2.07

**Q.** For “GGUUGUGAAGUGAGAAUUCTT against 4930429A08Rik”, which z-score is on record?
**A.** inactive: 0.292

**Q.** Which z-score does the source give for CGACACUCAAUGUGAACUUTT against Grtp1 here?
**A.** inactive: -0.287

**Q.** With GCUGUCUAGUACAUCUGACTT against Cry2 as the sequence, how does the z-score read?
**A.** inactive: -1.2

**Q.** With GCAAGGUGCACCUAAAGCATT against Egr4 as the sequence, how does the z-score read?
**A.** inactive: -2.04

**Q.** Which z-score does the source give for GGCAGGUUUGGUAACCAGATT against Fut1 here?
**A.** inactive: -0.814

**Q.** With GGUUGUUGGCUGGAUGAUATT against Acvr2 as the sequence, how does the z-score read?
**A.** inactive: -1.23

**Q.** With “GCCUCAGUGUCUGUUGGAATT against 2310067B10Rik” as the sequence, how does the z-score read?
**A.** inactive: -0.779

**Q.** With GAGCCUCUGUCUUUUUCUATT against Olfr342 as the sequence, how does the z-score read?
**A.** inactive: 0.104

**Q.** Which z-score does the source give for CCUUACUGAUACUCAAUUUTT against Sec14l4 here?
**A.** inactive: 0.647

**Q.** With GGACUCAAGCAAACUCCAGTT against Stx12 as the sequence, how does the z-score read?
**A.** inactive: -1.81

**Q.** With GGCAGUUAGUAAGUUUAAATT against Eif5a2 as the sequence, how does the z-score read?
**A.** inactive: -0.0487

**Q.** For GCAACAAUGUAUGCGUAUATT against Mrpl27, which z-score is on record?
**A.** inactive: 0.0358

**Q.** Which z-score does the source give for GCAUUAUGACUCUAAUAGCTT against Olfr60 here?
**A.** inactive: 0.536

**Q.** Which z-score does the source give for “GCAGAAGACCGCUUAAACATT against 4930413O22Rik” here?
**A.** inactive: -0.302

**Q.** For GGAGACAGAGGAAAUUCAGTT against Apoa5, which z-score is on record?
**A.** inactive: 2.35

**Q.** For GGACCCAGCAUUGGACUUGTT against Zranb1, which z-score is on record?
**A.** inactive: 1.2

**Q.** Which z-score does the source give for GGCCAUCAGAUUGGUGAAATT against Ccl17 here?
**A.** inactive: 0.657

**Q.** With GGGCAAGAAUAAAUGAAAGTT against Hes1 as the sequence, how does the z-score read?
**A.** inactive: -0.63

**Q.** With GGCAGUUUGACAACUUUAATT against Fibp as the sequence, how does the z-score read?
**A.** inactive: 0.0768
